In this experiment the target is FIR-FLAG (far-upstream element-binding protein (FUBP) 1-interacting repressor) (human) (UniProt Q9UHX1). Briefly: affinity purification with mass spectrometry; Flag-conjugated beads pull down of FIR-FLAG or FIRΔexon2-FLAG from HeLa cells, GeLC-MS / LC-MS; data first obtained with the cell systems of ref. 9 and re-evaluated here.

The chains behind the UniProt entries cited, without tags or fusion partners. Where a name states a change or a piece, a line headed by the entry shows the natural chain unless it says otherwise. A line that says so, or that is headed by a name, gives the form on record, which may keep a tag or linker. Residues count along the entry.
FIR-FLAG (far-upstream element-binding protein (FUBP) 1-interacting repressor) (Q9UHX1, form named): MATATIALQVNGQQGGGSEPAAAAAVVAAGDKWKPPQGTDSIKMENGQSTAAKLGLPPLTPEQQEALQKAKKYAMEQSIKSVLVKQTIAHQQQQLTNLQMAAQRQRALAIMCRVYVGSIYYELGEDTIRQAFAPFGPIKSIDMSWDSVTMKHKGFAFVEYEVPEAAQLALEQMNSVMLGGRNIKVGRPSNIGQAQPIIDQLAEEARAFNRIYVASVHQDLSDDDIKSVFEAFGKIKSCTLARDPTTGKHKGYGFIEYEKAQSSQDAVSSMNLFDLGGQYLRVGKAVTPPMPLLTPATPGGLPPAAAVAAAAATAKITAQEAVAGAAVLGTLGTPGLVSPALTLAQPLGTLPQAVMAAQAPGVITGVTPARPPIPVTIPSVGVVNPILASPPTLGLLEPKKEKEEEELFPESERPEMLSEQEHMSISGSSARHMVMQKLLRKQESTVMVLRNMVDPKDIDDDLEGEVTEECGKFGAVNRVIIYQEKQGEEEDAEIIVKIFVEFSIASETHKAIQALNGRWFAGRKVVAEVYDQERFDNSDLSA
UniProt P01040: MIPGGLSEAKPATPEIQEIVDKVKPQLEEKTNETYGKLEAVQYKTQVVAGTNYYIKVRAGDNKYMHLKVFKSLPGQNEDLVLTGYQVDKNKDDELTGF
UniProt P07737: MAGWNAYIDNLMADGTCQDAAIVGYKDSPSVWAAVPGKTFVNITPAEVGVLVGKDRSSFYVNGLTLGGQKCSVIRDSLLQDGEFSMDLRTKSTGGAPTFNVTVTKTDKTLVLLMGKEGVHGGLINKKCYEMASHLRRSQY
UniProt P11940: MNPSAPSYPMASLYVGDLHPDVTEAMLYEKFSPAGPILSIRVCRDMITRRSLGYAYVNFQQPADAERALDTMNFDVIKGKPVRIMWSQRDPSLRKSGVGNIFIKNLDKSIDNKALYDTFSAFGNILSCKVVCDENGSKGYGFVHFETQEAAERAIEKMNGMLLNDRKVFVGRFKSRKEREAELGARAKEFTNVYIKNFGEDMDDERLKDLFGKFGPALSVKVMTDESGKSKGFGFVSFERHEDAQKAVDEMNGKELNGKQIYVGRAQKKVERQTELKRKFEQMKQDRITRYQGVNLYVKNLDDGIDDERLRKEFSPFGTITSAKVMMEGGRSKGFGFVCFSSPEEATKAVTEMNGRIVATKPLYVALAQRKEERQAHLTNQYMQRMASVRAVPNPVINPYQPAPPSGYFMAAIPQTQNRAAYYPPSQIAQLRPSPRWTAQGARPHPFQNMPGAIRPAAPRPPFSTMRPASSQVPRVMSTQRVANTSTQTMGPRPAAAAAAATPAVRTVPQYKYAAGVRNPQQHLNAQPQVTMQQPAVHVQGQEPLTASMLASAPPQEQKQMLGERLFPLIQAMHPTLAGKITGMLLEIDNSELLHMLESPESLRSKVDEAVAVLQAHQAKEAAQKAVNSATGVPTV
UniProt Q13148: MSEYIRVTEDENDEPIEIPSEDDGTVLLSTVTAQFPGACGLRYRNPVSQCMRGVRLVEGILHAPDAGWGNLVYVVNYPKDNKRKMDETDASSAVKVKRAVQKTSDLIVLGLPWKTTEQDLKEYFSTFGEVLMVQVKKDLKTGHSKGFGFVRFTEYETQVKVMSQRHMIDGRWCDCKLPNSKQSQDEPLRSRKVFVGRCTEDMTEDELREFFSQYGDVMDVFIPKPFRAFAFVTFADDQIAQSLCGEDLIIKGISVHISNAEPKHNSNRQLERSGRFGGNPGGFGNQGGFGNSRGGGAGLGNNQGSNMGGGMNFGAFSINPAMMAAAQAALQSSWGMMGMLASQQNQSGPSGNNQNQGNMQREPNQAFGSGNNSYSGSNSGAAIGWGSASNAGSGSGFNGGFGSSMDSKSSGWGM
UniProt P23528: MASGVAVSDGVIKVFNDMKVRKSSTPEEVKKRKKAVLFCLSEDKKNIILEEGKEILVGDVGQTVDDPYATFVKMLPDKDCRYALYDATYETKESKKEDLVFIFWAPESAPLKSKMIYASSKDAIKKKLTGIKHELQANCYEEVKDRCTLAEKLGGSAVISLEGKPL
UniProt Q16643: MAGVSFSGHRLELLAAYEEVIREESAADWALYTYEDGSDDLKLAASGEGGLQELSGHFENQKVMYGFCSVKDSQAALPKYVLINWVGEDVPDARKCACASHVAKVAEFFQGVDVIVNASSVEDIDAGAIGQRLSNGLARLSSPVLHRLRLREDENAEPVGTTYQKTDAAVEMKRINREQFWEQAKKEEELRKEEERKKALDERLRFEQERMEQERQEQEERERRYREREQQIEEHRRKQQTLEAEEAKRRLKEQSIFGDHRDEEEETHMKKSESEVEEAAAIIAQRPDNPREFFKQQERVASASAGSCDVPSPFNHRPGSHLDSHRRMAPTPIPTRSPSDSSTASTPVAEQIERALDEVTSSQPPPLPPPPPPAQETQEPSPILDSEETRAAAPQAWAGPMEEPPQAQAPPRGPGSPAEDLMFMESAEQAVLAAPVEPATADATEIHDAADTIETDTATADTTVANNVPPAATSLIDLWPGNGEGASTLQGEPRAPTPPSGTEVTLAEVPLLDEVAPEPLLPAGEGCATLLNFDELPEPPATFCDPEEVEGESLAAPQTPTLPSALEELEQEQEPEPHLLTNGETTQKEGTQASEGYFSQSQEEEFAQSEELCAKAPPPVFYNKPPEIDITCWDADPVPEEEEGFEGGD
UniProt P08238: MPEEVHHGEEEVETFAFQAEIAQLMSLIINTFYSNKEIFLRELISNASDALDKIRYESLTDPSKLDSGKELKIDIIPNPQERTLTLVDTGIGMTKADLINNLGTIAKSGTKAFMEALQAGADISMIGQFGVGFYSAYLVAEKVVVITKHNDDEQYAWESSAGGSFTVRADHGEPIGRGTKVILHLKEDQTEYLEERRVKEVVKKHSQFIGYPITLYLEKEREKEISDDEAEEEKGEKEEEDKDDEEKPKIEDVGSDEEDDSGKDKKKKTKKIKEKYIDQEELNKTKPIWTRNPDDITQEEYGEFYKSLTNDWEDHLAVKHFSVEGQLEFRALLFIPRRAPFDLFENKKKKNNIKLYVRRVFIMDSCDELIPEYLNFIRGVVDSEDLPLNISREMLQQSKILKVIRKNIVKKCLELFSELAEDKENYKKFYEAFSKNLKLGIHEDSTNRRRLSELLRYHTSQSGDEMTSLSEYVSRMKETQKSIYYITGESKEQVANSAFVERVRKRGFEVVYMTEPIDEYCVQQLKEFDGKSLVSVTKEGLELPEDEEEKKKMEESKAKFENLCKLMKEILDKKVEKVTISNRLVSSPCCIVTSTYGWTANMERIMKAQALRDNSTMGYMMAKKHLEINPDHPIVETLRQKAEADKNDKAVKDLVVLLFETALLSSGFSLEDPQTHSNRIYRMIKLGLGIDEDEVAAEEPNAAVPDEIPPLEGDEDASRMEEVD
UniProt Q92747: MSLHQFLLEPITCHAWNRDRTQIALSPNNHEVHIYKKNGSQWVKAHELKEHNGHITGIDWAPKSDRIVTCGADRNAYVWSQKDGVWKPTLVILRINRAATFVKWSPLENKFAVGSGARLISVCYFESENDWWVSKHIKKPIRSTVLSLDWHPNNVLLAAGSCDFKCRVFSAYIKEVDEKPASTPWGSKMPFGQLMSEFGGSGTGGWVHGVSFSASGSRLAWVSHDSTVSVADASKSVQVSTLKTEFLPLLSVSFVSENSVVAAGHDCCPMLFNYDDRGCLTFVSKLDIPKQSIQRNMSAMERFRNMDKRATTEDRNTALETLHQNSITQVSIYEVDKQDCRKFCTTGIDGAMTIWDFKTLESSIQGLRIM
UniProt Q0ZGT2: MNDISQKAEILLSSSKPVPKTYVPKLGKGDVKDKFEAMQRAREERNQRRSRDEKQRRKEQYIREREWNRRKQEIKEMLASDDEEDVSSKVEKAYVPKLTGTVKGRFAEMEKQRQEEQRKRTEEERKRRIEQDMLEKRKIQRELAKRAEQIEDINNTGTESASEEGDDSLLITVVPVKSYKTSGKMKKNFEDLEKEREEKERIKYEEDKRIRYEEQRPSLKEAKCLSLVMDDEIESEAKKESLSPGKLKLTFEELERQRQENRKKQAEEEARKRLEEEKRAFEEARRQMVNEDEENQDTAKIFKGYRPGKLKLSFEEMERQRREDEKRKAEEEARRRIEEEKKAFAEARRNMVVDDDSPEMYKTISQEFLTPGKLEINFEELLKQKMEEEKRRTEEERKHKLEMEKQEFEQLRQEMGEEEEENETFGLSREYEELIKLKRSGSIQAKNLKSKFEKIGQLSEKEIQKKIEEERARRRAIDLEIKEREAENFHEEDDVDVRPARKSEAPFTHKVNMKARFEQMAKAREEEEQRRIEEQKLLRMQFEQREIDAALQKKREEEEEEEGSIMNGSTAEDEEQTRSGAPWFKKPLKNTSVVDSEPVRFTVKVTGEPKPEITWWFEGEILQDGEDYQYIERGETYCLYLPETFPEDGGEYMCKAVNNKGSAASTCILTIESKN
UniProt Q14839: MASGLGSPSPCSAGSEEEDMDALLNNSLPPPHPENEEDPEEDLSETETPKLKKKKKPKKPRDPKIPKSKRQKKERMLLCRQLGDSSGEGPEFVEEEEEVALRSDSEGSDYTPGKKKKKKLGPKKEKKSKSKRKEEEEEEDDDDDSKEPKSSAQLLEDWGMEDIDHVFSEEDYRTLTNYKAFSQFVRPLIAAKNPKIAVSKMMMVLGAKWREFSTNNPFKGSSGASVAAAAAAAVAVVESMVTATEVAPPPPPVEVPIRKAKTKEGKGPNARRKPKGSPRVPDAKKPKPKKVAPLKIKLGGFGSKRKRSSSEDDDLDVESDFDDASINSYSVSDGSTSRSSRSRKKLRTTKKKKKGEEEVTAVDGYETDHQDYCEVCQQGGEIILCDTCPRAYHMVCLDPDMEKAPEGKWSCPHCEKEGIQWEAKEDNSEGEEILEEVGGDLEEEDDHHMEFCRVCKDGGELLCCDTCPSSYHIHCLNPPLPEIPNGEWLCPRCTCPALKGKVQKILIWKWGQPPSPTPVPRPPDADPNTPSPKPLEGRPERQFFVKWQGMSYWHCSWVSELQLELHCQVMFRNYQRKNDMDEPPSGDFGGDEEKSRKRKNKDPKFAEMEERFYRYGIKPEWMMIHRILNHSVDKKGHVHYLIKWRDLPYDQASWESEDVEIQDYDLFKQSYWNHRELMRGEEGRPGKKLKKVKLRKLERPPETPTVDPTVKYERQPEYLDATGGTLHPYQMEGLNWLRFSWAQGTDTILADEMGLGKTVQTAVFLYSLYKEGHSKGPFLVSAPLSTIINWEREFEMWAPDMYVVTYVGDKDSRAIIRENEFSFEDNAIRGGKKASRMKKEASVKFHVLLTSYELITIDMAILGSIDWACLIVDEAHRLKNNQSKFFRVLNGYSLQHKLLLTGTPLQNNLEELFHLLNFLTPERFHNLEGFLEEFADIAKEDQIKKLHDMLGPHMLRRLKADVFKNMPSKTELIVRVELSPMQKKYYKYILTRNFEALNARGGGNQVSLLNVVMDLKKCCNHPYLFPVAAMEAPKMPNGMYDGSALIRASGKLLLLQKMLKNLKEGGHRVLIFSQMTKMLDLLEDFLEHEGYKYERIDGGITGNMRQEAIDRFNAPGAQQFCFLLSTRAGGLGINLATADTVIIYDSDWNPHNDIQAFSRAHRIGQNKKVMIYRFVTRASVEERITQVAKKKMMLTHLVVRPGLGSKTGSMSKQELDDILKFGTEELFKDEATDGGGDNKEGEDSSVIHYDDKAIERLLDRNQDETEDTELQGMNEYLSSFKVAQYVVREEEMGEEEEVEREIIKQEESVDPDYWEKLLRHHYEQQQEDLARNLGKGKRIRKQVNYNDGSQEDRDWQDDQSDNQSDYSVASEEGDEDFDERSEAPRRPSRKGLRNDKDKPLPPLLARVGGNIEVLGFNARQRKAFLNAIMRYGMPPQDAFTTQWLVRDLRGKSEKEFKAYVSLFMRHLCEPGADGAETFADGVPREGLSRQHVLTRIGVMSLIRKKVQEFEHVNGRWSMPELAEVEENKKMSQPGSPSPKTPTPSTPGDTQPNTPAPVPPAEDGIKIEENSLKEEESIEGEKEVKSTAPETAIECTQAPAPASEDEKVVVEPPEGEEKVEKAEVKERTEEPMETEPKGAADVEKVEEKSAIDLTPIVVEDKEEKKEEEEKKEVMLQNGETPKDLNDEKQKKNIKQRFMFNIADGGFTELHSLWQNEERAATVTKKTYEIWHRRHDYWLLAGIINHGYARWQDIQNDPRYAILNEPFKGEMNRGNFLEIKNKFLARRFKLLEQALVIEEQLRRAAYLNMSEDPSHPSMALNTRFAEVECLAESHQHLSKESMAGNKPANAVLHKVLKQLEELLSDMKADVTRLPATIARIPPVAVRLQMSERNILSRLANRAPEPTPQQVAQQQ
UniProt P02647, residues 19-267: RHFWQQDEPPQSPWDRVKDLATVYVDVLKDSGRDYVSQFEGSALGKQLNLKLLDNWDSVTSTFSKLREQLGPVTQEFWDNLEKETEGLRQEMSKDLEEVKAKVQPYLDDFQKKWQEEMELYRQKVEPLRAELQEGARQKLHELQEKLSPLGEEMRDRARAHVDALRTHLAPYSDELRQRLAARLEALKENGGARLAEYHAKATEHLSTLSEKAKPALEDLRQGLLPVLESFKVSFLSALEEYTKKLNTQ

Results are given in words; binding and its absence hold for the method and conditions named. Binding seen in cells or lysates may run through a third protein. A yes stands for co-enrichment or nearness to the bait. Other partners may have been found. A no says only that the protein was not detected with the bait.

On to “Poly [ADP-ribose] polymerase 1 (from UniProt P09874 1-1014)”, for which the binding entry is reported as “binds”. For “RNA-binding protein, autoantigenic (HnRNP-associated with lethal yellow homolog (Mouse)), isoform CRA_a (Fragment) (from UniProt Q9UKM9 1-306)”, the binding entry was “binds”.

With “Tricarboxylate transport protein, mitochondrial (from UniProt P53007 14-311)”, the binding result is “binds”. Under Cystatin-A (from UniProt P01040 1-98) stands “binds”. As for “60 kDa heat shock protein, mitochondrial (from UniProt P10809 27-573)”, the binding result was “binds”.

As for “LIM domain and actin-binding 1 isoform a (from UniProt Q9UHB6 1-759)”, the binding result is given as “binds”. For the molecule “Isoform 1 of DNA-dependent protein kinase catalytic subunit (from UniProt P78527 1-4128)”, the binding entry is given as “binds”. As for “Isoform 1 of Fragile X mental retardation syndrome-related protein 1 (from UniProt P51114 1-621)”, the binding result is on record as “binds”.

In the case of “Isoform 1 of U5 small nuclear ribonucleoprotein 200 kDa helicase (from UniProt O75643 1-2136)”, the binding result is reported as “binds”.

Regarding “Importin subunit beta-1 (from UniProt Q14974 1-876)”, the binding entry is recorded as “binds”.

As for “Isoform 1 of Guanine nucleotide-binding protein G(i), alpha-2 subunit (from UniProt P04899 1-355)”, the binding entry is recorded as “binds”. In the case of “Isoform 1 of Sequestosome-1 (from UniProt Q13501 1-440)”, the binding result is reported as “binds”.

As to “F-actin-capping protein subunit alpha-2 (from UniProt P47755 1-286)”, the binding result was “binds”.

As to “Isoform 1 of Heterogeneous nuclear ribonucleoprotein Q (from UniProt O60506 1-623)”, the binding result was “binds”. For Profilin-1 (from UniProt P07737 1-140), the binding result is on record as “binds”. With “Isoform 1 of Actin-binding LIM protein 1 (from UniProt O14639 1-778)”, the binding result is “binds”.

Regarding “protein phosphatase 1, regulatory subunit 9B (from UniProt Q96SB3 1-817)”, the binding entry was “binds”.

With “cDNA FLJ37875 fis, clone BRSSN2018771, highly similar to Poly(A)-binding protein 1 (from UniProt P11940 1-636)”, the binding result was “binds”. On to “Fragile X mental retardation syndrome-related protein 2 (from UniProt P51116 1-673)”, for which the binding result is “binds”.

Regarding TDP43 (from UniProt Q13148 1-414), the binding result is “binds”. Turning to “epiplakin 1 (from UniProt P58107 1-5088)”, the binding result was “binds”. Turning to Cofilin-1 (from UniProt P23528 1-166), the binding entry is given as “binds”. In the case of “Src substrate cortactin (from UniProt Q14247 1-550)”, the binding result was “binds”.

As for “14-3-3 protein epsilon (from UniProt P62258 1-255)”, the binding entry was “binds”.

“Actin-related protein 2/3 complex subunit 1B (from UniProt O15143 1-372)”: the binding result is reported as “binds”.

Take “Isoform 1 of Spectrin beta chain, brain 2 (from UniProt O15020 1-2390)”: the binding result is recorded as “binds”. Regarding “Isoform 1 of Drebrin (from UniProt Q16643 1-649)”, the binding entry is on record as “binds”. Under “Heat shock protein HSP 90-beta (from UniProt P08238 1-724)” stands “binds”; under “Actin-related protein 2/3 complex subunit 1 A (from UniProt Q92747 1-370)”, “binds”; under “Isoform 1 of Nexilin (from UniProt Q0ZGT2 1-675)”, “binds”.

With “Isoform 1 of Transformation/transcription domain-associated protein (from UniProt Q9Y4A5 1-3859)”, the binding entry is “no binding”. Regarding “Splicing factor 3B subunit 1(SAP155) (from UniProt O75533 1-1304)”, the binding result is recorded as “binds”.

Consider “Nuclear cap-binding protein subunit 1 (from UniProt Q09161 1-790)”, for which the binding entry was “binds”. “Ribosome biogenesis protein BOP1 (from UniProt Q14137 1-746)”: the binding entry was “binds”. Turning to “Isoform 1 of Chromodomain-helicase-DNA-binding protein 4 (from UniProt Q14839 1-1912)”, the binding result is recorded as “binds”. “Protein MAK16 homolog (from UniProt Q9BXY0 1-300)”: the binding result is listed as “binds”. Consider “Apolipoprotein A-I (from UniProt P02647 19-267)”, for which the binding result was “binds”.

B1: Tropomodulin-1 (protein, UniProt P28289 1-359)
chain: MSYRRELEKYRDLDEDEILGALTEEELRTLENELDELDPDNALLPAGLRQKDQTTKAPTGPFKREELLDHLEKQAKEFKDREDLVPYTGEKRGKVWVPKQKPLDPVLESVTLEPELEEALANASDAELCDIAAILGMHTLMSNQQYYQALSSSSIMNKEGLNSVIKPTQYKPVPDEEPNSTDVEETLERIKNNDPKLEEVNLNNIRNIPIPTLKAYAEALKENSYVKKFSIVGTRSNDPVAYALAEMLKENKVLKTLNVESNFISGAGILRLVEALPYNTSLVEMKIDNQSQPLGNKVEMEIVSMLEKNATLLKFGYHFTQQGPRLRASNAMMNNNDLVRKRRLADLTGPIIPKCRSGV
Take B1: the binding result is recorded as “binds”.

The record behind these values is publication PMC7028737.
